Test results from patent publication US20240033354A1.
Results are given in words; binding and its absence hold for the method and conditions named. Some entries that bind do so weakly or less than the wild type.

Amino acid sequences for entries named in this document (tags omitted). A change or cut given only in a name is not applied to a line headed by its entry.
UniProt P18177: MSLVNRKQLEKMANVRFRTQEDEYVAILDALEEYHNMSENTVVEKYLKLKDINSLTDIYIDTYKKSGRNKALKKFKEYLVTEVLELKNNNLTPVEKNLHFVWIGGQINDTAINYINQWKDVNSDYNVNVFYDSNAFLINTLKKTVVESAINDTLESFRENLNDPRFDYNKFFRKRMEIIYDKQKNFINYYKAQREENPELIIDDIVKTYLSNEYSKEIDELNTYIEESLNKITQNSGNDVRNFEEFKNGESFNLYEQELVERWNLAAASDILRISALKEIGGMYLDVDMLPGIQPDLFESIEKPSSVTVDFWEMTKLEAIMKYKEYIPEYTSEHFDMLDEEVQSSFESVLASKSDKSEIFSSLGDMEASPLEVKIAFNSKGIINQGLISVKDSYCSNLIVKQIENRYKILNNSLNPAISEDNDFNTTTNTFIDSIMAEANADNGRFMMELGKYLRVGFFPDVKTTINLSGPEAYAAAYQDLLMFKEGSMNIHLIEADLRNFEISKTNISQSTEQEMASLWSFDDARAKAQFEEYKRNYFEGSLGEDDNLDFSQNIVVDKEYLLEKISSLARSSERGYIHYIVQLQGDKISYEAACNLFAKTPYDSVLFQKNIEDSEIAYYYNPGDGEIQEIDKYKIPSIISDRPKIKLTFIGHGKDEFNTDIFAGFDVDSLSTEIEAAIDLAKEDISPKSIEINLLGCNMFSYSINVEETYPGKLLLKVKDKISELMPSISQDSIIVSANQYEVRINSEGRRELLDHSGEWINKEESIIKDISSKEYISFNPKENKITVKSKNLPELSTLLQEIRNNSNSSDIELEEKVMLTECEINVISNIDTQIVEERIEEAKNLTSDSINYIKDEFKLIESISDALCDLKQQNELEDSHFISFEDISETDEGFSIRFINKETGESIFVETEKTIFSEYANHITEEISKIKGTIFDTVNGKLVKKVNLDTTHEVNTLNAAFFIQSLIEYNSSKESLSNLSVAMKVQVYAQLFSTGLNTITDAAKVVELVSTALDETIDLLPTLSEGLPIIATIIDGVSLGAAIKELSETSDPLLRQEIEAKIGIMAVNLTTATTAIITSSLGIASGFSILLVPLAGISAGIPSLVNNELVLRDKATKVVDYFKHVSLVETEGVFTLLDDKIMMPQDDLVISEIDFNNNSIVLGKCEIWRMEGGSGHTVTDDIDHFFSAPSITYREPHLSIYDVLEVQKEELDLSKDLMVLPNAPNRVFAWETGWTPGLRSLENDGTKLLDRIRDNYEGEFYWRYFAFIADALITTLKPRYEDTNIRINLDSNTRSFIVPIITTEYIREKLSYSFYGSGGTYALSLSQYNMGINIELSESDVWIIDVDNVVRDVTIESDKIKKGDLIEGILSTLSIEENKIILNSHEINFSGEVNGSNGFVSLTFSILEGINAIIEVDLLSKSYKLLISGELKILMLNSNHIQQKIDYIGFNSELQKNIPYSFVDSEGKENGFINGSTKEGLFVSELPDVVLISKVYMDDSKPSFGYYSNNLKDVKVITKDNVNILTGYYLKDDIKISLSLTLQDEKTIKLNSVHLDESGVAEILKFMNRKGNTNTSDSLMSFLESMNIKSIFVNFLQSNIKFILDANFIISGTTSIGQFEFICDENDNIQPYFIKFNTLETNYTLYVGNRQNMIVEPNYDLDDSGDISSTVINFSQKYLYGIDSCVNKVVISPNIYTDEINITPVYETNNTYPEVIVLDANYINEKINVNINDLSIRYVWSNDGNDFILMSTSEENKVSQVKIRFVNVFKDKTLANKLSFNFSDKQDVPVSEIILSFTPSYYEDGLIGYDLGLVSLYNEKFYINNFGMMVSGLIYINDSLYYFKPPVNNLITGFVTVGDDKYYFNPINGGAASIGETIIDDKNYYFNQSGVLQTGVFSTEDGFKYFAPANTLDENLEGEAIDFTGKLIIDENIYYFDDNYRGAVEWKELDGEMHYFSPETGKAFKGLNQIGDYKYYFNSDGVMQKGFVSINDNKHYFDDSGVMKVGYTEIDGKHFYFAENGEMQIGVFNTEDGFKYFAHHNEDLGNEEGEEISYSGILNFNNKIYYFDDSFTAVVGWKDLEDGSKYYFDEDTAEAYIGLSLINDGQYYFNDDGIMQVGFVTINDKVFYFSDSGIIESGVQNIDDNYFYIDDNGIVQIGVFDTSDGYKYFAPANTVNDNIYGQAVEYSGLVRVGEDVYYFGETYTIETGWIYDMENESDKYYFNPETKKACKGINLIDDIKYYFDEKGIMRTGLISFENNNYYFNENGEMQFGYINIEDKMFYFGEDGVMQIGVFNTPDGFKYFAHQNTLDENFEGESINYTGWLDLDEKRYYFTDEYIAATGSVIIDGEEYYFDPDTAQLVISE
UniProt Q6UVK1: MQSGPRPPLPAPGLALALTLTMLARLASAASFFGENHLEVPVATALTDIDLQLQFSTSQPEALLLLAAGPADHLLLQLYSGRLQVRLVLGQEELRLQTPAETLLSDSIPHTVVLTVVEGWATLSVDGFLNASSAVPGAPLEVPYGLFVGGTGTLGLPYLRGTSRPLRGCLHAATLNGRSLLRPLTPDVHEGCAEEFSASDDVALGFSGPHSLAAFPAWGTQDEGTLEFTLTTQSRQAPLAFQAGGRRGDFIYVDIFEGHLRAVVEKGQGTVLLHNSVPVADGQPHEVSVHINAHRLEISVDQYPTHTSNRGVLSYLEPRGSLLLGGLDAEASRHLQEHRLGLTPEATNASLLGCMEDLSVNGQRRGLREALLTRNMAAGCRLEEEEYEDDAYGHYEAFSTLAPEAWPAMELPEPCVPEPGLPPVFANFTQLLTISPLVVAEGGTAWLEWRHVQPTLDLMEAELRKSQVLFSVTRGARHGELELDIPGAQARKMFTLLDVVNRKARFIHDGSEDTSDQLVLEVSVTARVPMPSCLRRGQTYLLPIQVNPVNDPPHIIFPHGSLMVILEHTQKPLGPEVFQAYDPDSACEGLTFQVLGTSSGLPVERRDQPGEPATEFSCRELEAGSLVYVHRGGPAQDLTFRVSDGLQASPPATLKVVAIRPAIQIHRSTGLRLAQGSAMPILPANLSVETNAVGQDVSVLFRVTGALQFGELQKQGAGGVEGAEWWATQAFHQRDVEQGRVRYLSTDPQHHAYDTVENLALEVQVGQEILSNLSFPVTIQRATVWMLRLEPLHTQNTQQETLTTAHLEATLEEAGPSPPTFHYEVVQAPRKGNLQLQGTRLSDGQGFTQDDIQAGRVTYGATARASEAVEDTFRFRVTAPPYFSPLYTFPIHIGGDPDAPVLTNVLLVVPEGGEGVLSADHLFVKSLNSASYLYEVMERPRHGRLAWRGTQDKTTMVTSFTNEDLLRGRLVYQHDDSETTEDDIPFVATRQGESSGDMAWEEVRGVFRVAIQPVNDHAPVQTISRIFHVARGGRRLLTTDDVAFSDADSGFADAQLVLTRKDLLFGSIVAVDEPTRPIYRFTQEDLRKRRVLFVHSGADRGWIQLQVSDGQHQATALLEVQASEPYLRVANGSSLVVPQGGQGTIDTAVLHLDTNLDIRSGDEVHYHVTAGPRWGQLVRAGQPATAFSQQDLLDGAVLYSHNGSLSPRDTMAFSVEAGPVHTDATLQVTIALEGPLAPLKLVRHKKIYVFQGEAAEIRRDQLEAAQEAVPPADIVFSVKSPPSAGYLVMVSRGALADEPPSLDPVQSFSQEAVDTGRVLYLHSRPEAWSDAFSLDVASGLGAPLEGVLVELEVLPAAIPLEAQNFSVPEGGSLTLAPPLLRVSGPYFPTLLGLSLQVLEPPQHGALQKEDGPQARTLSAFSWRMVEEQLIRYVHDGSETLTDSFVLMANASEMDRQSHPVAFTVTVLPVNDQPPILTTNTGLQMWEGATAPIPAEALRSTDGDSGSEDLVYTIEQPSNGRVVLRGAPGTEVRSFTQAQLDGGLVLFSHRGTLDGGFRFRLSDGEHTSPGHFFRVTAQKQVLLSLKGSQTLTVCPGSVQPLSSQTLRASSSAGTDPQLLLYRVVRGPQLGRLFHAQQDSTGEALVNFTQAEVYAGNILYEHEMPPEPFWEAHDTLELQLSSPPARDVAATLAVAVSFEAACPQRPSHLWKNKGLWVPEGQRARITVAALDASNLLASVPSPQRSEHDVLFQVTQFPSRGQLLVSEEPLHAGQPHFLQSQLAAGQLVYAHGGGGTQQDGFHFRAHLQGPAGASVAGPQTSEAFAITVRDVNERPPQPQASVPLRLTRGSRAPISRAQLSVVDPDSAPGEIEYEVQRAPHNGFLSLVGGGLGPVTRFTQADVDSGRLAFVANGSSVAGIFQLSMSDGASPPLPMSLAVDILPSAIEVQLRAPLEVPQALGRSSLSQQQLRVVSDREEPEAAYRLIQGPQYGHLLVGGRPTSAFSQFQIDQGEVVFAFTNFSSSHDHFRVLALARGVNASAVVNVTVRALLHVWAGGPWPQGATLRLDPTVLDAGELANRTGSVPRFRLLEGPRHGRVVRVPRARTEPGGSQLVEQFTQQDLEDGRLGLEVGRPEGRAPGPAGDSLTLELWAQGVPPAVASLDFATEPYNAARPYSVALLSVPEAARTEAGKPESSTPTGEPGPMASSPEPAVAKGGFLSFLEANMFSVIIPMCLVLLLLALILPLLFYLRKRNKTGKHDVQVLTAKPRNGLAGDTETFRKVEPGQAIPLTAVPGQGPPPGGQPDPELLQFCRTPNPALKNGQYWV

What was measured:
[1] = biological target: TcdB (construct not stated; partner in the pull down assays of Table 4) (Clostridium difficile, VPI10463 strain) (UniProt P18177); assay: pull down assays of TcdB and CSPG4 fragments
[2] = biological target: CSPG4 (construct not stated; partner in the pull down assays of Table 4) (human) (UniProt Q6UVK1); assay: pull down assays of TcdB and CSPG4 fragments
[3] = biological target: CSPG4^ECD (CSPG4 extracellular domain, residues 30-2204) (human) (UniProt Q6UVK1); assay: XL-MS with DHSO on the purified TcdB-CSPG4^ECD complex

| Substance | binding [1] | binding [2] | binding [3] |
| --- | --- | --- | --- |
| CSPG4 fragment 410-551 (Repeat1; construct of Table 4) (from UniProt Q6UVK1 410-551) (receptor) | binds |  |  |
| TcdB fragment 1-2099 (from UniProt P18177 1-2099) |  | binds |  |
| CSPG4^mini (CSPG4 residues 30-764) (from UniProt Q6UVK1 30-764) (receptor) | binds |  |  |
| Twin-Strep tagged full-length wild-type TcdB1 (expressed in E. coli) (from UniProt P18177 1-2366) |  | binds | binds |
| CSPG4^ECD (CSPG4 extracellular domain, residues 30-2204) (from UniProt Q6UVK1 30-2204) (receptor) | binds |  |  |
